Assay results as given in patent US9469650B2, “Melampomagnolide B derivatives” (BOARD OF TRUSTEES OF THE UNIVERSITY OF ARKANSAS, priority 2013, dated 2016).
At least one read-out could not be matched to a standard name with certainty.

Columns and labels:
HOP-62 = assay: panel of 60 human tumor cell lines, growth inhibition (Non-Small Cell Lung Cancer)
TK-10 = assay: panel of 60 human tumor cell lines, growth inhibition (Renal Cancer)
T-47D = assay: panel of 60 human tumor cell lines, growth inhibition (Breast Cancer)
M14 = assay: panel of 60 human tumor cell lines, growth inhibition (Melanoma)
LOX IMVI = assay: as above
SK-MEL-28 = assay: as above
HCC-2998 = assay: panel of 60 human tumor cell lines, growth inhibition (Colon Cancer)
SN12C = assay: panel of 60 human tumor cell lines, growth inhibition (Renal Cancer)
MDA-MB-468 = assay: panel of 60 human tumor cell lines, growth inhibition (Breast Cancer)
SNB-75 = assay: panel of 60 human tumor cell lines, growth inhibition (CNS Cancer)
HCT-116 = assay: panel of 60 human tumor cell lines, growth inhibition (Colon Cancer)
A549/ATCC = assay: panel of 60 human tumor cell lines, growth inhibition (Non-Small Cell Lung Cancer)
OVCAR-5 = assay: panel of 60 human tumor cell lines, growth inhibition (Ovarian Cancer)
A498 = assay: panel of 60 human tumor cell lines, growth inhibition (Renal Cancer)
SK-MEL-2 = assay: panel of 60 human tumor cell lines, growth inhibition (Melanoma)
786-0 = assay: panel of 60 human tumor cell lines, growth inhibition (Renal Cancer)
RXF 393 = assay: as above
COLO 205 = assay: panel of 60 human tumor cell lines, growth inhibition (Colon Cancer)
NCI-H322M = assay: panel of 60 human tumor cell lines, growth inhibition (Non-Small Cell Lung Cancer)
HS 578T = assay: panel of 60 human tumor cell lines, growth inhibition (Breast Cancer); settings: HS 578T
SF-295 = assay: panel of 60 human tumor cell lines, growth inhibition (CNS Cancer)

Compound: C=C1C(=O)O[C@H]2[C@H]1CC/C(COC(=O)Nc1n[nH]c(SC)n1)=C\CC[C@@]1(C)O[C@@H]21 [JVM 64, ((1aR,7aS,10aS,10bS,E)-1a-methyl-8-methylene-9-oxo-1a,2,3,6,7,7a,8,9,10a,10b-decahydrooxireno[2′,3′:9,10]cyclodeca[1,2-b]furan-5-yl)methyl-(5-(methylthio)-1H-1,2,4-triazol-3-yl)carbamate]
- Percent Growth (HOP-62; Log10 Concentration −4.0): −70%
- Percent Growth (HOP-62; Log10 Concentration −5.0): 38%
- Percent Growth (HOP-62; Log10 Concentration −6.0): 102%
- Percent Growth (HOP-62; Log10 Concentration −7.0): 106%
- Percent Growth (HOP-62; Log10 Concentration −8.0): 111%
- Percent Growth (TK-10; Log10 Concentration −4.0): −94%
- Percent Growth (TK-10; Log10 Concentration −5.0): −16%
- Percent Growth (TK-10; Log10 Concentration −6.0): 94%
- Percent Growth (TK-10; Log10 Concentration −7.0): 103%
- Percent Growth (TK-10; Log10 Concentration −8.0): 106%
- Percent Growth (T-47D; Log10 Concentration −4.0): −52%
- Percent Growth (T-47D; Log10 Concentration −5.0): −37%
- Percent Growth (T-47D; Log10 Concentration −6.0): 96%
- Percent Growth (T-47D; Log10 Concentration −7.0): 104%
- Percent Growth (T-47D; Log10 Concentration −8.0): 104%
- Percent Growth (M14; Log10 Concentration −4.0): −98%
- Percent Growth (M14; Log10 Concentration −5.0): −73%
- Percent Growth (M14; Log10 Concentration −6.0): 81%
- Percent Growth (M14; Log10 Concentration −7.0): 95%
- Percent Growth (M14; Log10 Concentration −8.0): 96%
- Percent Growth (LOX IMVI; Log10 Concentration −4.0): −82%
- Percent Growth (LOX IMVI; Log10 Concentration −5.0): −36%
- Percent Growth (LOX IMVI; Log10 Concentration −7.0): 101%
- Percent Growth (LOX IMVI; Log10 Concentration −8.0): 98%
- Percent Growth (SK-MEL-28; Log10 Concentration −4.0): −88%
- Percent Growth (SK-MEL-28; Log10 Concentration −5.0): −37%
- Percent Growth (SK-MEL-28; Log10 Concentration −6.0): 82%
- Percent Growth (SK-MEL-28; Log10 Concentration −7.0): 96%
- Percent Growth (SK-MEL-28; Log10 Concentration −8.0): 100%
- Percent Growth (HCC-2998; Log10 Concentration −4.0): −86%
- Percent Growth (HCC-2998; Log10 Concentration −5.0): 43%
- Percent Growth (HCC-2998; Log10 Concentration −6.0): 104%
- Percent Growth (HCC-2998; Log10 Concentration −7.0): 102%
- Percent Growth (HCC-2998; Log10 Concentration −8.0): 101%
- Percent Growth (SN12C; Log10 Concentration −4.0): −78%
- Percent Growth (SN12C; Log10 Concentration −5.0): 2%
- Percent Growth (SN12C; Log10 Concentration −6.0): 91%
- Percent Growth (SN12C; Log10 Concentration −7.0): 92%
- Percent Growth (SN12C; Log10 Concentration −8.0): 89%
- Percent Growth (MDA-MB-468; Log10 Concentration −4.0): −70%
- Percent Growth (MDA-MB-468; Log10 Concentration −5.0): −40%
- Percent Growth (MDA-MB-468; Log10 Concentration −6.0): 61%
- Percent Growth (MDA-MB-468; Log10 Concentration −7.0): 88%
- Percent Growth (MDA-MB-468; Log10 Concentration −8.0): 97%
- Percent Growth (SNB-75; Log10 Concentration −4.0): −96%
- Percent Growth (SNB-75; Log10 Concentration −6.0): 65%
- Percent Growth (SNB-75; Log10 Concentration −7.0): 76%
- Percent Growth (SNB-75; Log10 Concentration −8.0): 83%
- Percent Growth (HCT-116; Log10 Concentration −4.0): −94%
- Percent Growth (HCT-116; Log10 Concentration −5.0): −81%
- Percent Growth (HCT-116; Log10 Concentration −6.0): 57%
- Percent Growth (HCT-116; Log10 Concentration −7.0): 98%
- Percent Growth (HCT-116; Log10 Concentration −8.0): 101%
- Percent Growth (A549/ATCC; Log10 Concentration −4.0): −56%
- Percent Growth (A549/ATCC; Log10 Concentration −5.0): 24%
- Percent Growth (A549/ATCC; Log10 Concentration −6.0): 93%
- Percent Growth (A549/ATCC; Log10 Concentration −7.0): 96%
- Percent Growth (A549/ATCC; Log10 Concentration −8.0): 98%
- Percent Growth (OVCAR-5; Log10 Concentration −4.0): −89%
- Percent Growth (OVCAR-5; Log10 Concentration −5.0): −26%
- Percent Growth (OVCAR-5; Log10 Concentration −6.0): 69%
- Percent Growth (OVCAR-5; Log10 Concentration −7.0): 92%
- Percent Growth (OVCAR-5; Log10 Concentration −8.0): 97%
- Percent Growth (A498; Log10 Concentration −4.0): −98%
- Percent Growth (A498; Log10 Concentration −5.0): −12%
- Percent Growth (A498; Log10 Concentration −6.0): 93%
- Percent Growth (A498; Log10 Concentration −7.0): 89%
- Percent Growth (A498; Log10 Concentration −8.0): 96%
- Percent Growth (SK-MEL-2; Log10 Concentration −4.0): −65%
- Percent Growth (SK-MEL-2; Log10 Concentration −5.0): 9%
- Percent Growth (SK-MEL-2; Log10 Concentration −6.0): 101%
- Percent Growth (SK-MEL-2; Log10 Concentration −7.0): 103%
- Percent Growth (SK-MEL-2; Log10 Concentration −8.0): 103%
- Percent Growth (786-0; Log10 Concentration −4.0): −93%
- Percent Growth (786-0; Log10 Concentration −5.0): −72%
- Percent Growth (786-0; Log10 Concentration −6.0): 84%
- Percent Growth (786-0; Log10 Concentration −7.0): 100%
- Percent Growth (786-0; Log10 Concentration −8.0): 98%
- Percent Growth (RXF 393; Log10 Concentration −4.0): −76%
- Percent Growth (RXF 393; Log10 Concentration −5.0): −78%
- Percent Growth (RXF 393; Log10 Concentration −6.0): 48%
- Percent Growth (RXF 393; Log10 Concentration −7.0): 92%
- Percent Growth (RXF 393; Log10 Concentration −8.0): 96%
- Percent Growth (COLO 205; Log10 Concentration −4.0): −81%
- Percent Growth (COLO 205; Log10 Concentration −5.0): −72%
- Percent Growth (COLO 205; Log10 Concentration −6.0): 92%
- Percent Growth (COLO 205; Log10 Concentration −7.0): 111%
- Percent Growth (COLO 205; Log10 Concentration −8.0): 107%
- Percent Growth (NCI-H322M; Log10 Concentration −4.0): −85%
- Percent Growth (NCI-H322M; Log10 Concentration −5.0): 74%
- Percent Growth (NCI-H322M; Log10 Concentration −6.0): 98%
- Percent Growth (NCI-H322M; Log10 Concentration −7.0): 104%
- Percent Growth (NCI-H322M; Log10 Concentration −8.0): 97%
- Percent Growth (HS 578T; Log10 Concentration −4.0): −28%
- Percent Growth (HS 578T; Log10 Concentration −5.0): −5%
- Percent Growth (HS 578T; Log10 Concentration −6.0): 65%
- Percent Growth (HS 578T; Log10 Concentration −7.0): 92%
- Percent Growth (HS 578T; Log10 Concentration −8.0): 91%
- Percent Growth (SF-295; Log10 Concentration −4.0): −79%
- Percent Growth (SF-295; Log10 Concentration −5.0): 73%
- Percent Growth (SF-295; Log10 Concentration −6.0): 98%
- Percent Growth (SF-295; Log10 Concentration −7.0): 96%
- Percent Growth (SF-295; Log10 Concentration −8.0): 97%
